The target of experiment [1] is T1, Bovine brain tubulin (bovine) (UniProt P81947+Q6B856). The experiment can be described thus: inferred from the microtubule assembly assay (DAPI fluorescence); no direct binding assay.
The target of experiment [2] is T1, Bovine brain tubulin (bovine). The experiment can be described thus: inferred from microtubule assembly and disassembly assays (DAPI fluorescence); no direct binding assay.

By UniProt entry, the sequences of proteins in these tests, tags left out. Where a name states a change or a piece, a line headed by the entry shows the natural chain unless it says otherwise.
UniProt P81947: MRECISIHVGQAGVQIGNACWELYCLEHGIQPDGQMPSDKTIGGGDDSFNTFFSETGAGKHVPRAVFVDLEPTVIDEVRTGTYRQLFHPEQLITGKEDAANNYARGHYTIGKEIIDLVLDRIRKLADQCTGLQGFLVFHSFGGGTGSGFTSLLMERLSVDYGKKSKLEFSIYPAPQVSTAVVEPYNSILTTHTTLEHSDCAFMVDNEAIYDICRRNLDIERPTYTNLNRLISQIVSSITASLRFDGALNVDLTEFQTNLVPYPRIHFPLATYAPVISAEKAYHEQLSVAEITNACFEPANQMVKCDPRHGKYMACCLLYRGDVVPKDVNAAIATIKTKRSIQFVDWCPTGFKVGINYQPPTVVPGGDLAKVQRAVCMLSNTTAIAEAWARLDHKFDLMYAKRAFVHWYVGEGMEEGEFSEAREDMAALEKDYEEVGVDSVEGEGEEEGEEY
UniProt Q6B856: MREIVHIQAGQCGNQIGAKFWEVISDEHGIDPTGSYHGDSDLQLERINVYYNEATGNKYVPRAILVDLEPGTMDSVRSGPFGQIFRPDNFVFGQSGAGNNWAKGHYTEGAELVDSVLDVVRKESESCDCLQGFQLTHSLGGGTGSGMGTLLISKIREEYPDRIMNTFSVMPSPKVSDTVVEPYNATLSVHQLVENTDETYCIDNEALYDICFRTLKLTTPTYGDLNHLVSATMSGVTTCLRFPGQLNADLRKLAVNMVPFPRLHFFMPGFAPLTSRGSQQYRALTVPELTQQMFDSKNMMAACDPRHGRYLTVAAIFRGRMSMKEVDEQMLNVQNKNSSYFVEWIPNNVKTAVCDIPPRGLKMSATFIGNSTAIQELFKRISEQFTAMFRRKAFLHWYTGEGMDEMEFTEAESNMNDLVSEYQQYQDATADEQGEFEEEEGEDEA

No constants are given. Whether binding was seen depends on the method and setting. Some results given as binding are weak or reduced against the parent protein; the word gives no strength.

LTITSSLSSDGV [synthetic αB crystallin peptide 131…142 (LT)]: in experiment [1], the binding entry is recorded as “binds”.

As for ERTIPITRE [synthetic αB crystallin peptide 156…164 (ER)], the binding result in experiment [1] was “binds”.

As for FISREFHR [synthetic αB crystallin peptide 113FISREFHR120 (FI)], the binding result in experiment [2] is “binds”.

Source of the values: patent US20080280824A1, “COMPOSITIONS AND METHODS FOR TREATMENT OF CANCER OR NEURODEGENERATIVE DISEASE WITH PEPTIDE BASED MICROTUBULE STABILIZERS OR INHIBITORS” (University of Washington, priority 2007, published 2008).
